Results from the supplement of paper PMC10331698.
± gives the standard deviation of the averaged measurements. Small differences around the control level are noise.

Tests used:
Experiment in all cases: level (log10 ratio to DMSO vehicle control); higher = higher biomarker level / cell amount than vehicle control
[1] = compound: C=C(C)C(=O)OCCC(F)(F)C(F)(F)C(F)(F)C(F)(F)C(F)(F)C(F)(F)F [6:2 Fluorotelomer methacrylate] (in DMSO); settings: 2200 nM
Experimental: (§1)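 BioMAP Diversity Plus panel of 12 human primary cell co-culture systems (3C, 4H, LPS, SAg, BT, BF4T, BE3C, CASM3C, HDF3CGF, KF3CT, MyoF, Mphg). Compounds were added 1 h before stimulation and left for 24 h (MyoF 48 h; BT 72 h for soluble read-outs or 6 d for IgG). Biomarkers were read by ELISA, cytotoxicity by SRB, PBMC viability and proliferation by Alamar Blue. Each well value was divided by the mean of 8 DMSO control wells on the same plate and log10 transformed; duplicate blinded samples were tested at 4 concentrations.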

[2] = compound: CNS(=O)(=O)C(F)(F)C(F)(F)C(F)(F)C(F)(F)C(F)(F)C(F)(F)C(F)(F)C(F)(F)F [N-Methylperfluorooctanesulfonamide] (in DMSO); settings: 2200 nM
Experimental: as §1

[3] = compound: FC(F)(F)C(F)(F)C(F)(F)C(F)(F)CCI [1H,1H,2H,2H-Perfluorohexyl iodide] (in DMSO); settings: 2200 nM
Experimental: as §1

[4] = compound: FC(F)(F)C(F)(F)CNCC(F)(F)C(F)(F)F [Bis(1H,1H-perfluoropropyl)amine] (in DMSO); settings: 2200 nM
Experimental: as §1

[5] = compound: FC(F)(F)COC(OCC(F)(F)F)OCC(F)(F)F [tris(Trifluoroethoxy)methane] (in DMSO); settings: 2200 nM
Experimental: as §1

Hexafluoroglutaric acid = compound: O=C(O)C(F)(F)C(F)(F)C(F)(F)C(=O)O [Hexafluoroglutaric acid] (in DMSO)
Experimental: as §1

Perfluorohexanoic acid = compound: O=C(O)C(F)(F)C(F)(F)C(F)(F)C(F)(F)C(F)(F)F [Perfluorohexanoic acid] (in DMSO)
Experimental: as §1

[6] = compound: O=C(O)C(F)(F)C(F)(F)C(F)(F)OC(F)(C(F)(F)F)C(F)(F)F [Perfluoro-4-isopropoxybutanoic acid] (in DMSO); settings: 2200 nM
Experimental: as §1

[7] = compound: O=C(O)C(F)(OC(F)(F)C(F)(F)C(F)(F)F)C(F)(F)F [Ammonium perfluoro-2-methyl-3-oxahexanoate] (in Water)
Experimental: as §1

[8] = compound: O=C(O)C(F)(OC(F)(F)C(F)(OC(F)(F)C(F)(OC(F)(F)C(F)(F)C(F)(F)F)C(F)(F)F)C(F)(F)F)C(F)(F)F [Perfluoro-(2,5,8-trimethyl-3,6,9-trioxadodecanoic)acid] (in DMSO); settings: 370 nM
Experimental: as §1

[9] = compound: O=C(O)CCC(F)(F)C(F)(F)C(F)(F)F [3:3 Fluorotelomer carboxylic acid] (in DMSO); settings: 2200 nM
Experimental: as §1

[10] = compound: O=S(=O)(O)C(F)(F)C(F)(F)C(F)(F)C(F)(F)F [Perfluorobutanesulfonic acid] (in DMSO)
Experimental: as §1

[11] = compound: OCC(F)(F)C(F)(F)C(F)(F)C(F)(F)C(F)(F)C(F)(F)CO [1H,1H,8H,8H-Perfluorooctane-1,8-diol] (in DMSO); settings: 2200 nM
Experimental: as §1

[12] = compound: OCC(F)(F)C(F)(F)C(F)(F)C(F)(F)C(F)(F)C(F)(F)F [6:1 Fluorotelomer alcohol] (in DMSO); settings: 2200 nM
Experimental: as §1

[13] = compound: OCC(F)(F)C(F)(F)C(F)(F)C(F)F [1H,1H,5H-Perfluoropentanol] (in DMSO); settings: 2200 nM
Experimental: as §1

[14] = compound: OCC(F)(F)OC(F)(F)C(F)(F)OC(F)(F)CO [1H,1H,8H,8H-Perfluoro-3,6-dioxaoctane-1,8-diol] (in DMSO); settings: 2200 nM
Experimental: as §1

[15] = compound: OCCCC(F)(F)C(F)(F)C(F)(F)C(F)(F)C(F)(F)C(F)(F)C(F)(F)C(F)(F)F [3-(Perfluorooctyl)propanol] (in DMSO); settings: 2200 nM
Experimental: as §1

Test System | level (log10) [1] | level (log10) [2] | level (log10) [3] | level (log10) [4] | level (log10) [5] | level (log10) (Hexafluoroglutaric acid; 2200 nM) | level (log10) (Hexafluoroglutaric acid; 6700 nM) | level (log10) (Hexafluoroglutaric acid; 20000 nM) | level (log10) (Hexafluoroglutaric acid; 60000 nM) | level (log10) (Perfluorohexanoic acid; 2200 nM) | level (log10) (Perfluorohexanoic acid; 6700 nM) | level (log10) (Perfluorohexanoic acid; 20000 nM) | level (log10) (Perfluorohexanoic acid; 60000 nM) | level (log10) [6] | level (log10) ([7]; 2200 nM) | level (log10) ([7]; 6700 nM) | level (log10) ([7]; 20000 nM) | level (log10) ([7]; 60000 nM) | level (log10) [8] | level (log10) [9] | level (log10) ([10]; 2200 nM) | level (log10) ([10]; 6700 nM) | level (log10) ([10]; 20000 nM) | level (log10) ([10]; 60000 nM) | level (log10) [11] | level (log10) [12] | level (log10) [13] | level (log10) [14] | level (log10) [15]
BF4T:MMP-9 | -0.035 ± 0.047 | 0.0035 ± 0.035 | 0.0335 ± 0.026 | 0.006 ± 0.031 | 0.0265 ± 0.056 | -0.0065 ± 0.025 | -0.003 ± 0.0014 | -0.0135 ± 0.012 | 0.007 ± 0.0028 | 0.004 ± 0.025 | 0.0215 ± 0.0035 | -0.01 ± 0.027 | 0.0215 ± 0.018 | 0.026 ± 0.037 | 0.0405 ± 0.04 | 0.0275 ± 0.005 | 0.047 ± 0.017 | 0.075 ± 0.013 | 0.0205 ± 0.011 | 0.017 ± 0.081 | 0.007 ± 0.0099 | -0.004 ± 0.0014 | -0.0065 ± 0.028 | -0.013 ± 0.02 | -0.0075 ± 0.035 | 0.03 ± 0.061 | 0.0025 ± 0.013 | -0.005 ± 0.045 | 0.017 ± 0.092
BF4T:PAI-I | 0.0045 ± 0.021 | 0.012 ± 0.017 | 0.016 ± 0.0028 | 0.0095 ± 0.011 | 0.0105 ± 0.028 | 0.0045 ± 0.035 | -0.0085 ± 0.022 | -0.002 ± 0.021 | 0.0165 ± 0.011 | 0.003 ± 0.0085 | 0.011 | 0.004 ± 0.0028 | 0.0145 ± 0.0064 | 0.0115 ± 0.018 | 0.0035 ± 0.0021 | -0.004 ± 0.0028 | 0.001 ± 0.0042 | 0.005 ± 0.0028 | 0.0035 ± 0.00071 | 0.014 ± 0.027 | 0.003 ± 0.0028 | -0.0075 ± 0.0092 | -0.005 ± 0.0042 | 0.0015 ± 0.005 | 0.0215 ± 0.0021 | -0.114 ± 0.15 | 0.0045 ± 0.005 | 0.008 ± 0.021 | 0.005 ± 0.042
BF4T:SRB | 0.0035 ± 0.019 | -0.0005 ± 0.011 | -0.0035 ± 0.0092 | -0.0045 ± 0.0092 | 0.001 ± 0.014 | 0.005 ± 0.02 | -0.005 ± 0.0028 | -0.0065 ± 0.0021 | -0.0015 ± 0.0078 | -0.0015 ± 0.015 | -0.0025 ± 0.00071 | -0.0095 ± 0.0092 | 0.0105 ± 0.0064 | 0 ± 0.0057 | 0.006 ± 0.0099 | -0.003 ± 0.013 | 0 ± 0.0014 | 0.0135 ± 0.022 | 0.0105 ± 0.015 | 0.002 ± 0.016 | 0.007 ± 0.018 | -0.006 ± 0.0099 | -0.0085 ± 0.005 | -0.009 ± 0.0028 | 0 ± 0.0057 | 0.0245 ± 0.037 | 0.005 ± 0.0057 | 0.0035 ± 0.021 | -0.007 ± 0.0057
BF4T:tPA | -0.017 ± 0.0042 | 0.0505 ± 0.044 | 0.0275 ± 0.039 | -0.027 ± 0.065 | 0.014 ± 0.047 | 0.013 ± 0.079 | -0.0195 ± 0.018 | -0.0205 ± 0.028 | -0.0045 ± 0.011 | 0.002 ± 0.031 | -0.0045 ± 0.0064 | -0.0035 ± 0.019 | 0.0055 ± 0.013 | 0.016 ± 0.059 | 0.0505 ± 0.015 | 0.0405 ± 0.0078 | 0.0575 ± 0.033 | 0.0185 ± 0.019 | 0.0075 ± 0.022 | 0.0145 ± 0.047 | -0.0105 ± 0.015 | -0.0115 ± 0.021 | 0.0025 ± 0.0092 | 0.0115 ± 0.018 | 0.007 ± 0.011 | -0.0015 ± 0.028 | -0.0025 ± 0.0035 | 0.009 ± 0.045 | 0.0135 ± 0.04
BF4T:uPA | 0.022 ± 0.017 | 0.021 ± 0.021 | 0.0055 ± 0.035 | -0.013 ± 0.017 | 0.0045 ± 0.013 | 0.0085 ± 0.043 | -0.009 ± 0.016 | -0.0015 ± 0.015 | -0.003 ± 0.0028 | 0 ± 0.0071 | 0.01 ± 0.0028 | 0.004 | 0.0105 ± 0.0078 | 0.004 ± 0.02 | 0.013 ± 0.021 | -0.0025 ± 0.011 | -0.0005 ± 0.0078 | 0.0035 ± 0.022 | 0.0095 ± 0.013 | -0.003 ± 0.013 | -0.0225 ± 0.044 | -0.026 ± 0.02 | 0.006 ± 0.0014 | -0.014 ± 0.027 | -0.004 ± 0.0085 | -0.003 ± 0.0014 | 0.006 ± 0.013 | 0 ± 0.021 | -0.003 ± 0.018
